Measured values: paper PMC11242770
Results are given in words; binding and its absence hold for the method and conditions named. In cells and extracts the contact can be indirect. Some binding calls cover weakened binding; strength is not graded here.

By UniProt entry, the sequences of proteins in these tests, tags left out. Residues count along the entry.
UniProt Q15303, residues 26-1308: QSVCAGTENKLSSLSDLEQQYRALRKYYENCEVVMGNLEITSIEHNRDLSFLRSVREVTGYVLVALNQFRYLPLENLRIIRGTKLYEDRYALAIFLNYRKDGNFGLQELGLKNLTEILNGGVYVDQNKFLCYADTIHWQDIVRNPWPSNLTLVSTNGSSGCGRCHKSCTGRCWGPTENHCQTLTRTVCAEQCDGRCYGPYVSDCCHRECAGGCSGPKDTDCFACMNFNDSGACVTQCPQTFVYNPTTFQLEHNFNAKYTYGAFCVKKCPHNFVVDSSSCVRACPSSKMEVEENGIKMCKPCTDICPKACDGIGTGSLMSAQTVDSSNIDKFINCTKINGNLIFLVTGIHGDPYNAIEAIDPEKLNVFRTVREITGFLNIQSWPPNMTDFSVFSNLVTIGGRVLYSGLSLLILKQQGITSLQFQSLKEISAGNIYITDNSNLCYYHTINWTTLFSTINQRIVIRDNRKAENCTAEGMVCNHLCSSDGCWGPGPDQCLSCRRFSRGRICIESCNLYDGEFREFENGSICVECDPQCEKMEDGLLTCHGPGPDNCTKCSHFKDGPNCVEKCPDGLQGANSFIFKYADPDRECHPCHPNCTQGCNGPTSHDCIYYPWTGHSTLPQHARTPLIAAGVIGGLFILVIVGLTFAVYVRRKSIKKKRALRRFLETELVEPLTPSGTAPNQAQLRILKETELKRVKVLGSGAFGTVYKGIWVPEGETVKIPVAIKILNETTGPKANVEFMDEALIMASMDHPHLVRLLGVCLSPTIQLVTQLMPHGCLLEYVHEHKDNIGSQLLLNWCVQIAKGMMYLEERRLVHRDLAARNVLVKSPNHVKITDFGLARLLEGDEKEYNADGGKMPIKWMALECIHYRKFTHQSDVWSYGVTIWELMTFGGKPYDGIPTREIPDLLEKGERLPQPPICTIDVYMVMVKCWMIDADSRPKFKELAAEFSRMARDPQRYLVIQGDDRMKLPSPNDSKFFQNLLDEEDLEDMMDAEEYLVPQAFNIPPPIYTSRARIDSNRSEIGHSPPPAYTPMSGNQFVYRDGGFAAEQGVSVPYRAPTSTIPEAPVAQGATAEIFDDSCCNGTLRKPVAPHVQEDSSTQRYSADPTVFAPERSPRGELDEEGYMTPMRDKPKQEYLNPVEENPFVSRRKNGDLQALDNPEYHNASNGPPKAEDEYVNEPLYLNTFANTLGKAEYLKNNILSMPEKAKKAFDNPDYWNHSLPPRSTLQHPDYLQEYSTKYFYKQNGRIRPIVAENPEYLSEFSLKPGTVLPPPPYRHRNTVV
UniProt P03372: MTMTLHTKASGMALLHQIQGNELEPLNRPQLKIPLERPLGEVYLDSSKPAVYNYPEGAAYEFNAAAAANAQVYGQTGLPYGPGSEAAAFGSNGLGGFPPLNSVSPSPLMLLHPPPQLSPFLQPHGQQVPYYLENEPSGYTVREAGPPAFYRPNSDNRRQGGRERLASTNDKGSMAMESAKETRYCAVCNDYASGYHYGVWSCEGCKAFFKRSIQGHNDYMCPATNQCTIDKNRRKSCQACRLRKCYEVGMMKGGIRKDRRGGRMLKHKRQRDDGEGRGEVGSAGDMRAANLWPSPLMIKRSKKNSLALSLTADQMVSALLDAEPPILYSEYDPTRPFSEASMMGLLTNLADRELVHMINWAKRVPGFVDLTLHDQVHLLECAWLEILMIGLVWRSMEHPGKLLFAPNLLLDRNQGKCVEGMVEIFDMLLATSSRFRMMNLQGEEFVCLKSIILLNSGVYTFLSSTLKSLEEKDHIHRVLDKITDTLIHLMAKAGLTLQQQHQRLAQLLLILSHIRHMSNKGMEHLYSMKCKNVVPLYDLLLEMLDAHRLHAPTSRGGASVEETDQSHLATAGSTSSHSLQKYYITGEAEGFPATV

Biological target: HER4/4ICD (human epidermal growth factor receptor related HER4 receptor and its cleaved intracellular domain 4ICD) (human (endogenous in MCF-7)) (UniProt Q15303)
Test: co-IP; 200 µg MCF-7 WT lysate, anti-HER4 catcher antibody on µMACS Protein A MicroBeads, 6 h at 4 °C, washed with ice cold lysis buffer; ESR detected by Western blot; cells untreated or treated 24 h with tamoxifen (1 µM), E2 (100 nM), NRG1 (30 ng/mL) or abemaciclib (100 nM)

binding: binds
Substance: estrogen receptor (ESR) (from UniProt P03372 1-595)
